Experimental data taken from PMC11266670.
Results are given in words; binding and its absence hold for the method and conditions named. Binding seen in cells or lysates may run through a third protein. Some entries that bind do so weakly or less than the wild type.

Protein sequences, listed by entry. Tags and fused reporters are not part of them. Lines headed by an entry give the natural chain unless they say otherwise; changes in a name come on top.
UniProt Q62280: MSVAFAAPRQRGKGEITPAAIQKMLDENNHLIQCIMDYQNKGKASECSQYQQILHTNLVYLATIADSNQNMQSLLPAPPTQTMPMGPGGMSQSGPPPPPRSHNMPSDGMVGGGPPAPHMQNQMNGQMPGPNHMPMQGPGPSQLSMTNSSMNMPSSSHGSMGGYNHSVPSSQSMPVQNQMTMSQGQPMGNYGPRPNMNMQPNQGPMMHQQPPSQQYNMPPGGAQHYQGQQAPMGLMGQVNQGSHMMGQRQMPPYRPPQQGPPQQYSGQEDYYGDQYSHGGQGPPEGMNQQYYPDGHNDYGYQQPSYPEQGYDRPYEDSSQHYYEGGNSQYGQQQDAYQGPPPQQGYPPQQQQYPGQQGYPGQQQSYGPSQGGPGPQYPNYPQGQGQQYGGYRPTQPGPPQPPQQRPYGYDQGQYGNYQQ
UniProt Q3TKT4: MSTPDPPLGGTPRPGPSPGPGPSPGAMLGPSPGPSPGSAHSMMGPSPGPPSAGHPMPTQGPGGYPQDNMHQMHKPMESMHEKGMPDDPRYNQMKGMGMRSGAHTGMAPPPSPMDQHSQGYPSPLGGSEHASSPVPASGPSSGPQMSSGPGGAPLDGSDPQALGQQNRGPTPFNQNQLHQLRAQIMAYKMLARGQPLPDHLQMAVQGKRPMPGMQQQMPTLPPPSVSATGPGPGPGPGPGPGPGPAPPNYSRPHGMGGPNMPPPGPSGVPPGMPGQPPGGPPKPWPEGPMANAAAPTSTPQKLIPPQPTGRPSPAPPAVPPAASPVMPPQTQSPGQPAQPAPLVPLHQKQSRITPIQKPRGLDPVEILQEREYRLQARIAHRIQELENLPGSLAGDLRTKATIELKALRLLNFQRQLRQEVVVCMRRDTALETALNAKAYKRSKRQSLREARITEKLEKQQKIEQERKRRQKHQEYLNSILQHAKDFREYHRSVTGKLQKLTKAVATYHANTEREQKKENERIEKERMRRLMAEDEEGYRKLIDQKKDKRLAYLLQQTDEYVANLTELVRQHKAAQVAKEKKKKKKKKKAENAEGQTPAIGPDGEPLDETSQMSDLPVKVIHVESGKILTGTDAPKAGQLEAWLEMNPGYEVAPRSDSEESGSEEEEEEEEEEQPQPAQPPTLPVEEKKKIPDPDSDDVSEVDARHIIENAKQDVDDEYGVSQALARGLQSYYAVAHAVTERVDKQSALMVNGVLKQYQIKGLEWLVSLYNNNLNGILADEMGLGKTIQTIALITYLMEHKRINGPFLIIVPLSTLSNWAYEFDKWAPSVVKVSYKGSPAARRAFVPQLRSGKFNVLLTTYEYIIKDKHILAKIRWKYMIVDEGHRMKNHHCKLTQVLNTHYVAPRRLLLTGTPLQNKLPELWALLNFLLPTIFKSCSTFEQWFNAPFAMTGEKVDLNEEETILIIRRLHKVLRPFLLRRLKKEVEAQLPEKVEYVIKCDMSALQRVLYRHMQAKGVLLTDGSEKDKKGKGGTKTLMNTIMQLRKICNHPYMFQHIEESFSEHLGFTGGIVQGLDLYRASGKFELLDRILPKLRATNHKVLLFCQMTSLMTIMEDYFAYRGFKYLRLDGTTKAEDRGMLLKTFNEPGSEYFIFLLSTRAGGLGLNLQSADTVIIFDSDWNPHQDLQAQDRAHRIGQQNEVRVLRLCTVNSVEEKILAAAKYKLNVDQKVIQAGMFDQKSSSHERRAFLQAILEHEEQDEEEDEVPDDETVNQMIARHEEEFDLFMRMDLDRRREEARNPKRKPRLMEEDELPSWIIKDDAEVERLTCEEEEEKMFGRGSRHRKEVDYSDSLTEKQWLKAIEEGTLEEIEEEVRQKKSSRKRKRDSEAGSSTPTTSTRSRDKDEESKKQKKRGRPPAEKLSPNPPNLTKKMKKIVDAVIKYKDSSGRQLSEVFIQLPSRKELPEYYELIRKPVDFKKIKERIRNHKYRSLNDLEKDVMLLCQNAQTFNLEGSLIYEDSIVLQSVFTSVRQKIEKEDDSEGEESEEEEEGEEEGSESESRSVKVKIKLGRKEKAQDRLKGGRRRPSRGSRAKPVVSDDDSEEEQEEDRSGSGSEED
UniProt P97496: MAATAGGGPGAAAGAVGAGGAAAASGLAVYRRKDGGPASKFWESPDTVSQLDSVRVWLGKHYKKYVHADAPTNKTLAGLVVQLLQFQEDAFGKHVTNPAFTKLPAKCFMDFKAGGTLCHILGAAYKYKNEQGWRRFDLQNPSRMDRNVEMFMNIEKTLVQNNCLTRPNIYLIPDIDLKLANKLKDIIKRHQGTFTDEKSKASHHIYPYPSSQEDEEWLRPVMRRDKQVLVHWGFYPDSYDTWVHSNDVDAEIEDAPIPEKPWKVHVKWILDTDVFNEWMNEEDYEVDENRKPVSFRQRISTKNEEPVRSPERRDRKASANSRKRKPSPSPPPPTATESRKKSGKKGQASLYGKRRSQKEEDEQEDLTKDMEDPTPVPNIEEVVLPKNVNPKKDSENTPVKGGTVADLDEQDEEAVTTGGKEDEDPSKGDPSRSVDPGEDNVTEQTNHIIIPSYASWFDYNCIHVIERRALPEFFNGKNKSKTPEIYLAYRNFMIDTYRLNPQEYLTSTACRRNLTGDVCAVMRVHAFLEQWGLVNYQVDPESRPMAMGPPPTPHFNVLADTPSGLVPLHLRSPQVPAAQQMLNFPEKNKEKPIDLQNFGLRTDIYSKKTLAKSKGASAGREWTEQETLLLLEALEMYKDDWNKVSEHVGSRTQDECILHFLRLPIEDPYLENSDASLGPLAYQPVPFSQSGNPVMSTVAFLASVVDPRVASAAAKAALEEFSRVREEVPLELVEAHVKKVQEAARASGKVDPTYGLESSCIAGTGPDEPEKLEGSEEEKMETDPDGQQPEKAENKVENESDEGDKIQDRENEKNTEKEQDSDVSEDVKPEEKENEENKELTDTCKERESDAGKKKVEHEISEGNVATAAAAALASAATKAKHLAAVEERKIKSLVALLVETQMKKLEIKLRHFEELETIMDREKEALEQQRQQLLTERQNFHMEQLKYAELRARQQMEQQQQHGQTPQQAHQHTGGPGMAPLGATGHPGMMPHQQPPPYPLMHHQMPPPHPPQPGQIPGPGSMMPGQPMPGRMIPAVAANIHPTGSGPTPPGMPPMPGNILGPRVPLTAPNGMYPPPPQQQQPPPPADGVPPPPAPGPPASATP

Molecular target: Nanog^BiD (UniProt Q62280)
Experiment: co-IP; whole cell lysate in NP-40 buffer (50 mM Tris pH 7.4, 200 mM NaCl, 1% NP40) incubated overnight at 4 °C with anti-FLAG M2 magnetic beads for 3xFLAG-tagged Nanog^WT or Nanog^BiD; western blot of SMARCC1, SMARCA4, FLAG, NANOG

For “SMARCA4/BRG1 (from UniProt Q3TKT4 1-1613)”, the binding was “binds”.

With SMARCC1 (from UniProt P97496 1-1104) the binding was “binds”.
